# Laboratory results: the supplement of paper PMC4604168 (melanoma cell lines)
# Some of the results follow. Repeats are few or missing, and single values can be far off.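 The apoptosis fraction was the count of cleaved-PARP antibody-stained nuclei relative to all DNA-stained nuclei, imaged in 1,536-well plates. Screening doses were set so most cells survived, and baseline and induced cleaved-PARP levels vary greatly across cell lines.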
# Tested on: COLO800
# Assay: cleaved PARP positive nuclei fraction relative to DMSO control; melanoma cells; higher = more apoptosis
# Details: library dose: low library concentration; 72 h
row,SMILES,cleaved PARP positive nuclei fraction [%]
1,"Cc1cc(N2CCOCC2)cc2[nH]c(-c3c(NC[C@@H](O)c4cccc(Cl)c4)cc[nH]c3=O)nc12 + O=C(Nc1ccccc1)c1cc([N+](=O)[O-])ccc1Cl [GW9662] (first compound 0.2 µM, partner dose 2 µM)",254
2,"Nc1cccc2c1CN(C1CCC(=O)NC1=O)C2=O (stereo not drawn) [lenalidomide] + O=C(Nc1ccccc1)c1cc([N+](=O)[O-])ccc1Cl [GW9662] (first compound 1 µM, partner dose 2 µM)",110
3,"CC(C)(C)c1cnc(CSc2cnc(NC(=O)C3CCNCC3)s2)o1 + Oc1cc(-c2nc(-c3ccccc3)[nH]c2-c2ccncc2)ccc1Cl [L779450] (first compound 0.01 µM, partner dose 0.2 µM)",195
4,"Cc1nc(Nc2ncc(C(=O)Nc3c(C)cccc3Cl)s2)cc(N2CCN(CCO)CC2)n1 [dasatanib] + COC(=O)c1sccc1S(=O)(=O)Nc1ccc(Nc2ccccc2)cc1OC [GSK0660] (first compound 0.004 µM, partner dose 1 µM)",74.5
5,"C#Cc1cccc(Nc2ncnc3cc(OCCOC)c(OCCOC)cc23)c1 [erlotinib] + O=C(O)C(=O)Nc1sc2c(c1C(=O)O)CCNC2 [TCS401] (first compound 0.8 µM, partner dose 1.66667 µM)",101
6,"Cn1c(Nc2ccc(C(F)(F)F)cc2)nc2cc(Oc3ccnc(-c4ncc(C(F)(F)F)[nH]4)c3)ccc21 + CCCCCCCCCCCC1=C(O)C(=O)C=C(O)C1=O [Embelin] (first compound 0.08 µM, partner dose 1.2 µM)",113
7,"Cn1cncc1[C@@](N)(c1ccc(Cl)cc1)c1ccc2c(c1)c(-c1cccc(Cl)c1)cc(=O)n2C [tipifarnib] + COc1cc2ncnc(Nc3ccc(Oc4ccccc4)cc3)c2cc1OC [SrcI1] (first compound 0.01 µM, partner dose 2 µM)",108
8,"C#Cc1cccc(Nc2ncnc3cc(OCCOC)c(OCCOC)cc23)c1 [erlotinib] + COc1cc2ncnc(Nc3ccc(Oc4ccccc4)cc3)c2cc1OC [SrcI1] (first compound 0.8 µM, partner dose 2 µM)",152
9,"Nc1cccc2c1CN(C1CCC(=O)NC1=O)C2=O (stereo not drawn) [lenalidomide] + Cn1cc(/C=C2\C(=O)Nc3cccnc32)c2ccccc21 [GW441756] (first compound 1 µM, partner dose 0.4 µM)",111
10,"Cc1nc(Nc2ncc(C(=O)Nc3c(C)cccc3Cl)s2)cc(N2CCN(CCO)CC2)n1 [dasatanib] + c1cc(-c2cnn3cc(-c4ccc(OCCN5CCCCC5)cc4)cnc23)ccn1 [Dorsomorphin] (first compound 0.004 µM, partner dose 0.4 µM)",79.3
11,"Cn1cncc1[C@@](N)(c1ccc(Cl)cc1)c1ccc2c(c1)c(-c1cccc(Cl)c1)cc(=O)n2C [tipifarnib] + O=C(O)C(=O)Nc1sc2c(c1C(=O)O)CCNC2 [TCS401] (first compound 0.01 µM, partner dose 1.66667 µM)",76.3
12,"Cn1c(Nc2ccc(C(F)(F)F)cc2)nc2cc(Oc3ccnc(-c4ncc(C(F)(F)F)[nH]4)c3)ccc21 + O=C(Nc1ccccc1)c1cc([N+](=O)[O-])ccc1Cl [GW9662] (first compound 0.08 µM, partner dose 2 µM)",95
13,"Cn1cncc1[C@@](N)(c1ccc(Cl)cc1)c1ccc2c(c1)c(-c1cccc(Cl)c1)cc(=O)n2C [tipifarnib] + Oc1nc(-c2ccc(C(F)(F)F)cc2)nc2c1CSCC2 [XAV939] (first compound 0.01 µM, partner dose 2 µM)",143
14,"Cn1nnc2c(C(N)=O)ncn2c1=O [temozolomide] + COc1ccc2c(c1)CCC1C2CCC2(C)C(NCCCCCCN3C(=O)C=CC3=O)CCC12 [U73122] (first compound 2 µM, partner dose 0.4 µM)",81.6

# Tested on: COLO829
# Assay: as above
# Details: library dose: low library concentration; 72 h
row,SMILES,cleaved PARP positive nuclei fraction [%]
1,"OCCn1cc(-c2cnc3nnn(Cc4ccc5ncccc5c4)c3n2)cn1 + Oc1cc(-c2nc(-c3ccccc3)[nH]c2-c2ccncc2)ccc1Cl [L779450] (first compound 1 µM, partner dose 0.2 µM)",103
2,"CO[C@@H]1[C@H](N(C)C(=O)c2ccccc2)C[C@H]2O[C@]1(C)n1c3ccccc3c3c4c(c5c6ccccc6n2c5c31)C(=O)NC4 [Midostaurin] + O=C(Nc1ccccc1)c1cc([N+](=O)[O-])ccc1Cl [GW9662] (first compound 0.08 µM, partner dose 2 µM)",54.9
3,"CC1(C)NC(=O)N(c2ccc([N+](=O)[O-])c(C(F)(F)F)c2)C1=O [nilutamide] + COC(=O)c1sccc1S(=O)(=O)Nc1ccc(Nc2ccccc2)cc1OC [GSK0660] (first compound 1 µM, partner dose 1 µM)",97.6
4,"Cc1nc(Nc2ncc(C(=O)Nc3c(C)cccc3Cl)s2)cc(N2CCN(CCO)CC2)n1 [dasatanib] + Cc1cc([N+](=O)[O-])ccc1NS(=O)(=O)c1cc(Cl)ccc1Cl [FH535] (first compound 0.004 µM, partner dose 1 µM)",215
5,"C[C@@H]1CCN(C(=O)CC#N)C[C@@H]1N(C)c1ncnc2[nH]ccc12 + O=C(Nc1ccccc1)c1cc([N+](=O)[O-])ccc1Cl [GW9662] (first compound 1 µM, partner dose 2 µM)",218
6,"C=CCn1c(=O)c2cnc(Nc3ccc(N4CCN(C)CC4)cc3)nc2n1-c1cccc(C(C)(C)O)n1 + O=c1cc(-c2cccc3c2Sc2ccccc2S3)oc(N2CCOCC2)c1 [KU55933] (first compound 0.02 µM, partner dose 1 µM)",78.3
7,"Cc1ccc(NC(=O)c2cccc(N(C)C)c2)cc1NC(=O)c1ccc(O)cc1 + N#Cc1c(O)c2c(-c3ccc(-c4ccccc4O)cc3)csc2[nH]c1=O [A769662] (first compound 2 µM, partner dose 2 µM)",89.9
8,"Cc1cc(N2CCOCC2)cc2[nH]c(-c3c(NC[C@@H](O)c4cccc(Cl)c4)cc[nH]c3=O)nc12 + O=C(O)C(=O)Nc1sc2c(c1C(=O)O)CCNC2 [TCS401] (first compound 0.2 µM, partner dose 1.66667 µM)",107
9,"C=CCn1c(=O)c2cnc(Nc3ccc(N4CCN(C)CC4)cc3)nc2n1-c1cccc(C(C)(C)O)n1 + CCN(CC)CCCCNc1ncc2cc(-c3cc(OC)cc(OC)c3)c(NC(=O)NC(C)(C)C)nc2n1 [PD173074] (first compound 0.02 µM, partner dose 0.1 µM)",129
10,"Cc1cc(N2CCOCC2)cc2[nH]c(-c3c(NC[C@@H](O)c4cccc(Cl)c4)cc[nH]c3=O)nc12 + O=c1cc(-c2cccc3c2Sc2ccccc2S3)oc(N2CCOCC2)c1 [KU55933] (first compound 0.2 µM, partner dose 1 µM)",80.5
11,"C#Cc1cccc(Nc2ncnc3cc(OCCOC)c(OCCOC)cc23)c1 [erlotinib] + O=c1cc(-c2cccc3c2Sc2ccccc2S3)oc(N2CCOCC2)c1 [KU55933] (first compound 0.8 µM, partner dose 1 µM)",58.1
12,"Cn1c(Nc2ccc(C(F)(F)F)cc2)nc2cc(Oc3ccnc(-c4ncc(C(F)(F)F)[nH]4)c3)ccc21 + O=C1NC(=O)/C(=C/c2ccc(-c3ccc(F)cc3O)o2)S1 [AS252424] (first compound 0.08 µM, partner dose 1 µM)",107
13,"NC(=O)Nc1cc(-c2cccc(F)c2)sc1C(=O)N[C@H]1CCCNC1 + CCCCCCCCCCCC1=C(O)C(=O)C=C(O)C1=O [Embelin] (first compound 0.02 µM, partner dose 1.2 µM)",77.1
14,"C=CCn1c(=O)c2cnc(Nc3ccc(N4CCN(C)CC4)cc3)nc2n1-c1cccc(C(C)(C)O)n1 + COc1cc2ncnc(Nc3ccc(Oc4ccccc4)cc3)c2cc1OC [SrcI1] (first compound 0.02 µM, partner dose 2 µM)",114
15,"Cn1c(Nc2ccc(C(F)(F)F)cc2)nc2cc(Oc3ccnc(-c4ncc(C(F)(F)F)[nH]4)c3)ccc21 + N#Cc1c(O)c2c(-c3ccc(-c4ccccc4O)cc3)csc2[nH]c1=O [A769662] (first compound 0.08 µM, partner dose 2 µM)",65.7
16,"Cn1nnc2c(C(N)=O)ncn2c1=O [temozolomide] + COc1cc(N2CCC(N3CCN(C)CC3)CC2)ccc1Nc1ncc(Cl)c(Nc2ccccc2S(=O)(=O)C(C)C)n1 [NVP-TAE684] (first compound 2 µM, partner dose 0.08 µM)",163
17,"O=C(CCCCCCC(=O)Nc1ccccc1)NO [vorinostat] + COc1ccc(COc2ccc(Cc3cnc(N)nc3N)cc2OC)cc1 [GW2580] (first compound 0.08 µM, partner dose 1 µM)",96
18,"C#Cc1cccc(Nc2ncnc3cc(OCCOC)c(OCCOC)cc23)c1 [erlotinib] + Oc1cc(-c2nc(-c3ccccc3)[nH]c2-c2ccncc2)ccc1Cl [L779450] (first compound 0.8 µM, partner dose 0.2 µM)",103
19,"C#Cc1cccc(Nc2ncnc3cc(OCCOC)c(OCCOC)cc23)c1 [erlotinib] + N#Cc1c(O)c2c(-c3ccc(-c4ccccc4O)cc3)csc2[nH]c1=O [A769662] (first compound 0.8 µM, partner dose 2 µM)",86.6

# Pulled one by one from the list above, 2 records:
row,SMILES,cleaved PARP positive nuclei fraction [%]
16,"Cn1nnc2c(C(N)=O)ncn2c1=O [temozolomide] + COc1cc(N2CCC(N3CCN(C)CC3)CC2)ccc1Nc1ncc(Cl)c(Nc2ccccc2S(=O)(=O)C(C)C)n1 [NVP-TAE684] (first compound 2 µM, partner dose 0.08 µM)",163
12,"Cn1c(Nc2ccc(C(F)(F)F)cc2)nc2cc(Oc3ccnc(-c4ncc(C(F)(F)F)[nH]4)c3)ccc21 + O=C1NC(=O)/C(=C/c2ccc(-c3ccc(F)cc3O)o2)S1 [AS252424] (first compound 0.08 µM, partner dose 1 µM)",107
